Laboratory results published in patent US20240262919A1 (SHANGHAITECH UNIVERSITY, published 2024).
Results are given in words; binding and its absence hold for the method and conditions named. Some binding calls cover weakened binding; strength is not graded here. For some of these results: Where a sequence is shown, tags or fusion partners need not be part of it.

T1: antigen of the affinity maturation selections of antibody 3131 (IL-18Rβ, construct not named) (UniProt O95256)
T1 sequence (looked up): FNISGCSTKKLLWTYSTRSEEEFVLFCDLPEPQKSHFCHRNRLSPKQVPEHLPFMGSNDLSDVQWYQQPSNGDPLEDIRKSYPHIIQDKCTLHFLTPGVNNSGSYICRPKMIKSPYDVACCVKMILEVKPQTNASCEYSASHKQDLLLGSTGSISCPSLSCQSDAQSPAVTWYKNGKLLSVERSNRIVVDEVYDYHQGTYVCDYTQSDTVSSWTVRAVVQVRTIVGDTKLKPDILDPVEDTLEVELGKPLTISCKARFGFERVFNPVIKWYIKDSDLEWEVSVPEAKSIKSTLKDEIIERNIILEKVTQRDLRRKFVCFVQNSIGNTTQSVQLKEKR

T2: human IL-18Rβ ECD Fc fusion (118-AP-100, R&D Systems) (human) (UniProt O95256)
T2 sequence: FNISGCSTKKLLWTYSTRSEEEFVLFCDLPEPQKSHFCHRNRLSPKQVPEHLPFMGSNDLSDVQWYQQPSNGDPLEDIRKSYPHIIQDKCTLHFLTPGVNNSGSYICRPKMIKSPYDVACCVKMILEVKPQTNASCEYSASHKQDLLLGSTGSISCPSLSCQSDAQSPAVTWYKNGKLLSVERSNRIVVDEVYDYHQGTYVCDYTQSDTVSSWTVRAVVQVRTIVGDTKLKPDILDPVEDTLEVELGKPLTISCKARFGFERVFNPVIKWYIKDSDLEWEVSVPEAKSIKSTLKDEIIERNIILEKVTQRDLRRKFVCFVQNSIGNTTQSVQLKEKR

B1: 3131 AM2-10 (Fab, V domains shown)
VH: EVQLVESGGGLVQPGGSLRLSCAASGFNLYYSSMHWVRQAPGKGLEWVASIYSSNGNTGYADSVKGRFTISADTSKNTAYLQMNSLRAEDTAVYYCARSSFSHGYGWYGLDYWGQGTLVTVSS
VL: DIQMTQSPSSLSASVGDRVTITCRASQSVSSAVAWYQQKPGKAPKLLIYSASSLYSGVPSRFSGSRSGTDFTLTISSLQPEDFATYYCQQYGYHYAGLITFGQGTKVEIK
B2: 3131 AM2-11 (Fab, V domains shown)
VH: EVQLVESGGGLVQPGGSLRLSCAASGFNLYYSSMHWVRQAPGKGLEWVASIYSSNGNTGYADSVKGRFTISADTSKNTAYLQMNSLRAEDTAVYYCARSSFSHGYGWYGLDYWGQGTLVTVSS
VL: DIQMTQSPSSLSASVGDRVTITCRASQSVSSAVAWYQQKPGKAPKLLIYSASSLYSGVPSRFSGSRSGTDFTLTISSLQPEDFATYYCQQYGYHYAGLITFGQGTKVEIK
B3: 3131 AM2-16 (Fab, V domains shown)
VH: EVQLVESGGGLVQPGGSLRLSCAASGFNLYYSSMHWVRQAPGKGLEWVASIYSSYGYTYYADSVKGRFTISADTSKNTAYLQMNSLRAEDTAVYYCARSSFSHGYGWYGLDYWGQGTLVTVSS
VL: DIQMTQSPSSLSASVGDRVTITCRASQSVSSAVAWYQQKPGKAPKLLIYSTSSLYSGVPSRFSGSRSGTDFTLTISSLQPEDFATYYCQQYGYHYAGLITFGQGTKVEIK
B4: 3131 AM2-29 (Fab, V domains shown)
VH: EVQLVESGGGLVQPGGSLRLSCAASGFNLYYSSMHWVRQAPGKGLEWVASIYSSYGYTYYADSVKGRFTISADTSKNTAYLQMNSLRAEDTAVYYCARSSFSHGYGWYGLDYWGQGTLVTVSS
VL: DIQMTQSPSSLSASVGDRVTITCRASQSVSSAVAWYQQKPGKAPKLLIYSTSSLYSGVPSRFSGSRSGTDFTLTISSLQPEDFATYYCQQYGYHYAGLITFGQGTKVEIK
B5: 3131 AM2-O-45 (Fab, V domains shown)
VH: EVQLVESGGGLVQPGGSLRLSCAASGFDLYYSSMHWVRQAPGKGLEWVASIYSSSGDTHYADSVKGRFTISADTSKNTAYLQMNSLRAEDTAVYYCARSSFSHGYGWYGLDYWGQGTLVTVSS
VL: DIQMTQSPSSLSASVGDRVTITCRASQSVSSAVAWYQQKPGKAPRLLIYGASSLYSGVPSRFSGSRSGTDFTLTISSLQPEDFATYYCQQYGYHGAGLITFGQGTKVEIK
B6: 3131 AM2-O-46 (Fab, V domains shown)
VH: EVQLVESGGGLVQPGGSLRLSCAASGFSLYYSSMHWVRQAPGKGLEWVASIYSSSGDTHYADSVKGRFTISADTSKNTAYLQMNSLRAEDTAVYYCARSSFSHGYGWYGLDYWGQGTLVTVSS
VL: DIQMTQSPSSLSASVGDRVTITCRASQSVSSAVAWYQQKPGKAPRLLIYGASSLYSGVPSRFSGSRSGTDFTLTISSLQPEDFATYYCQQYGYHGAGLITFGQGTKVEIK

What was measured:
[1] = target: T1, antigen of the affinity maturation selections of antibody 3131 (IL-18Rβ, construct not named); experiment: affinity-based solution-phase phage display selection, decreasing antigen concentration
[2] = target: T2, human IL-18Rβ ECD Fc fusion (118-AP-100, R&D Systems) (human); experiment: ELISA on recombinant human IL-18Rβ, normalised OD 450 nm, Fab with PBS or with saturating IgG 3131 [top plot]
[3] = target: T2, human IL-18Rβ ECD Fc fusion (118-AP-100, R&D Systems) (human); experiment: ELISA on recombinant human IL-18Rβ, normalised OD 450 nm, Fab with PBS or with saturating IgG 3131 [middle plot]

Row | Binder | binding [1] | binding [2] | binding [3]
1 | B1 | binds | binds | 
2 | B2 | binds | binds | 
3 | B3 | binds |  | binds
4 | B4 | binds |  | binds
5 | B5 | binds |  | 
6 | B6 | binds |  | 
